Reference: PubChem BioAssay AID588590 (National Center for Advancing Translational Sciences (NCATS), 2011)
“And” between values parts separate entries of the source, which are not always exact repeats. Identical values can stand only once. Screen size: about 390,000 compounds; about 4,000 (1%) were called active. The inconclusive results got no clear call from the source; some entries with a clear call stand among them for comparison. Calls come from the whole dose curve; as a rule, active = well fitted inhibition curve with a large enough effect; inconclusive = small, poorly fitted or top-dose-only effect, or another doubt; inactive = no such curve, though single readings can be large or run the other way. Potencies beside an inconclusive call are fits to weak or partial responses and may not hold up.

Amino acid sequences for entries named in this document (tags omitted). A change or cut given only in a name is not applied to a line headed by its entry.
UniProt Q9UNA4: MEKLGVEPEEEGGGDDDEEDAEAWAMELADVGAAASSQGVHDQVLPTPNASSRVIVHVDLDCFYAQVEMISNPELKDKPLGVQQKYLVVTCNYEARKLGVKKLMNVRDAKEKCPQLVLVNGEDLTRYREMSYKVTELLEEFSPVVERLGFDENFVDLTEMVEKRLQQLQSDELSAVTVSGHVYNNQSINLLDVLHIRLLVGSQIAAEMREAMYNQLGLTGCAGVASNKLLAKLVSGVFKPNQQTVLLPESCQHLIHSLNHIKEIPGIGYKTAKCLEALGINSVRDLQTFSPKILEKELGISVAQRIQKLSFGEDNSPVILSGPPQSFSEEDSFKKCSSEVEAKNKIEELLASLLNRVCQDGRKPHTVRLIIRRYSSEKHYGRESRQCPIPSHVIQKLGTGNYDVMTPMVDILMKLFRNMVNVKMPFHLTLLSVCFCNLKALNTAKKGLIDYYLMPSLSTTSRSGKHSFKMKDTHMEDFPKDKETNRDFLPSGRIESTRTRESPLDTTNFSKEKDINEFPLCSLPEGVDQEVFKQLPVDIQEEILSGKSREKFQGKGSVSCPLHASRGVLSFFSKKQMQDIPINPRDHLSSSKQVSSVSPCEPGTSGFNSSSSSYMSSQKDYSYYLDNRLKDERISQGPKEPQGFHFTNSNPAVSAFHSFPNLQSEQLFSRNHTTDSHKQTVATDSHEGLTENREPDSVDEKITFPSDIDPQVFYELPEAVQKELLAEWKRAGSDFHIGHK

The compounds below were run against DNA polymerase iota (Homo sapiens) (UniProt Q9UNA4) (assay: qHTS for Inhibitors of Polymerase Iota). Details: Pol iota fluorescent replication assay, 10 min; series mostly up to 115 µM; activity, negative = inhibition: at the top concentration.
In short: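 Fluorescent replication assay read twice, at 0 min and 10 min after adding 50 nM (final) substrate. Enzyme (10 nM) and compounds were first incubated 15 min at room temperature; enzyme-free buffer wells were negative controls.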
Potency is the fitted concentration of half-maximal effect.

activity, negative = inhibition, inactive:
COc1ccc(C2C=C3CNS(=O)(=O)C3CC2OC(=O)c2ccc(C(F)(F)F)cc2)cc1 (configuration not stated) -17.9%
O=C(Nc1cccc2cccnc12)C1CCCC1 127%
Cc1ccc2c(c1)/C(=C/c1ccccc1)C(=O)N2 -6.32%
Cc1nc(-c2ccc(C)c(S(=O)(=O)N3CCC(C(=O)NCc4ccc(F)cc4)CC3)c2)no1 -10.6%
COc1ccc(S(=O)(=O)N(CCc2ccccc2)CC(=O)Nc2cc(C)cc(C)c2)cc1OC 20.7%
Cc1cc(N2CCC(C)CC2)nc2ccc(NC(=O)CCC(=O)N3CCN(c4ccccc4F)CC3)cc12 -11.9%
Cc1ccccc1C(=O)O/N=C(\N)c1cccc([N+](=O)[O-])c1 -22.9%
COc1ccc(OC)c(NC(=O)CS(=O)(=O)Cc2nc(-c3ccc(C)cc3)oc2C)c1 47.8%
COCCN(C(=O)COC(=O)CCOc1cccc(C)c1)c1c(N)n(Cc2ccccc2)c(=O)[nH]c1=O 55.2%
COc1ccc(C2C(C#N)=C(N)SC(N)=C2C#N)cc1OC 25.2%
CC1CCCCC12NC(=S)N(c1ccccc1)N2 (configuration not stated) 0.529%
Cc1ccc(CNC(=O)CCCc2nnc3n(CC(C)C)c(=O)c4sccc4n23)cc1 3.38%
CC1=C(c2ccc(C(C)C)cc2)S(=O)(=O)NC1=NCc1ccc(Cl)cc1 -27.4%
CCN(CC)C(=O)C1CCCN(c2ncnc3c2c(-c2ccccc2)cn3-c2cccc(C)c2)C1 (configuration not stated) 9.03%
COc1ccc(-c2noc(CSc3nnc(-c4ccncc4)n3-c3ccc(F)cc3)n2)cc1OC -9.58%
COc1ccc(OC)c(NC(=O)CCc2c(C)nn(-c3ccc(N4CCCC4)nn3)c2C)c1 43.7%
O=C(Cn1cc(SCc2ccccc2)c2ccccc21)N1CCCCC1 17.4%
Nc1nc(Nc2cccc(F)c2)nc(NCCO)c1[N+](=O)[O-] 52%
O=C(O)C/C(=C\c1ccc(N2CCOCC2)c([N+](=O)[O-])c1)c1nc2ccccc2s1 -23.1%
COc1ccc(C)cc1NC(=O)C1CCN(S(=O)(=O)c2ccc3[nH]c4c(c3c2)CCCCC4)CC1 35.2%
Cc1ccccc1Nc1c(-c2ccc(Cl)s2)nc2c(C)cccn12 -38.8%
COc1ccc(CNC(=O)c2cc(-c3cccc(Cl)c3)on2)cc1 9.92%

Potency, active:
C=C(C)COc1ccc2oc(C)c(C(=O)OCCOC)c2c1 89.1 µM
CCOc1ccc(OCC)c(NC(=O)c2cc(-c3cccs3)nc3ccccc23)c1 89.1 µM
O=C1NN(c2ccccc2)C(=O)/C1=C\c1ccc(-c2cc([N+](=O)[O-])ccc2O)o1 15.8 µM

Potency, inconclusive:
NC(=O)c1ccsc1NC(=O)COC(=O)CNC(=O)c1cccc([N+](=O)[O-])c1 35.5 µM [inhibitor, full curve]
Cc1cc(C(=O)CCl)c(C)n1CCc1ccccc1 35.5 µM [inhibitor, single point]
COc1ccc(S(=O)(=O)N2CCC(C(=O)NCCc3ccc4c(c3)OCO4)CC2)cc1 25.1 µM [inhibitor, single point]
CC(OC(=O)CCN=C1NS(=O)(=O)c2ccccc21)C(=O)Nc1ccc(N(C)C)cc1 (configuration not stated) 39.8 µM [inhibitor, single point]
C=CCn1c(SCC(=O)Nc2ccccc2)nc2scc(-c3cccs3)c2c1=O 28.2 µM [inhibitor, partial curve, poor fit]
CCCCCCC(=O)N(O)C1CC(=O)N(c2ccc(C)cc2)C1=O (configuration not stated) 5.62 µM [inhibitor, full curve, poor fit]
Cn1cccc1C(=O)NC(=O)COC(=O)c1ccc(S(C)(=O)=O)c([N+](=O)[O-])c1 17.8 µM [inhibitor, partial curve] and 39.8 µM [inhibitor, single point]
CCC(NC(=O)OCc1ccccc1)C(=O)Oc1ccc2ccc(=O)oc2c1 (configuration not stated) 28.2 µM [inhibitor, single point]
O=C(Sc1ccc(Cl)cc1)c1ccccn1 39.8 µM [inhibitor, single point]
O=C(CCc1nnc2ccc(NCc3ccco3)nn12)Nc1ccc(F)cc1 22.4 µM [inhibitor, partial curve, poor fit]
Cc1nc(-c2ccc(C(=O)Nc3cccc(Br)c3)cc2)cs1 44.7 µM [inhibitor, partial curve]
COc1ccc(NC(=O)CN(C)CC(=O)NC2CCCCC2C)cc1 (configuration not stated) 89.1 µM [inhibitor, single point]
O=C(Cn1cnc2c(nnn2-c2cccc(Cl)c2)c1=O)NCc1ccccc1 3.16 µM [inhibitor, single point]
COc1ccc(/C=C/C(=O)c2cc3cccc(OC)c3oc2=O)cc1 7.08 µM [inhibitor, full curve]
COc1cc(/C=C/C(=O)OCC(=O)N2CCN(S(=O)(=O)c3ccc(C)cc3C)CC2)ccc1O 112 µM [inhibitor, partial curve, poor fit]
C=CCNC(=O)c1onc(CSc2cccc3ccccc23)c1C(=O)O 2.82 µM [inhibitor, full curve, poor fit]
CC(C)N1C(=O)/C(=C/c2nc3ccccc3c(=O)n2-c2ccccc2)c2ccccc21 22.4 µM [inhibitor, full curve]
C/C(=N/NC(=O)CNC(=O)c1cccnc1)c1ccc(Cl)cc1 39.8 µM [inhibitor, single point]
Nc1nc(CN2CCN(c3ccccc3F)CC2)nc(Nc2ccc3c(c2)OCCO3)n1 89.1 µM [inhibitor, full curve, poor fit]
Cc1cc([N+](=O)[O-])nn1Cc1ccc(C(=O)N/N=C/c2ccc(O)cc2O)cc1 39.8 µM [inhibitor, single point]
CCOC(=O)Nc1ccc2c(COC(=O)C(NS(=O)(=O)c3ccc(Cl)cc3)C(C)O)cc(=O)oc2c1 (configuration not stated) 22.4 µM [inhibitor, full curve]
Cc1ccc(C(=O)N/N=C\c2cc(Br)c(Br)o2)cn1 44.7 µM [inhibitor, partial curve]
Cc1ccc(-c2ccc(C(=O)NCc3ccc(Cl)cc3)o2)c2ccccc12 35.5 µM [inhibitor, single point]
NS(=O)(=O)c1cccc(NC(=O)c2ccc3nc[nH]c3c2)c1 12.6 µM [inhibitor, full curve, poor fit]
CCc1ccc2occ(CC(=O)Nc3ccc(C)c(C)c3)c2c1 100 µM [inhibitor, single point]
COc1ccc(OCCCC(=O)OCC(=O)N2CCN(S(=O)(=O)c3ccc(C)cc3C)CC2)cc1 3.98 µM [inhibitor, partial curve, poor fit]
CCCc1cc(C(=O)NCC(C)C)no1 10 µM [inhibitor, partial curve, poor fit]
CSc1ccc(C2C(C#N)=C(N)Oc3c2ccc(=O)c2c(C)oc(C)c32)cc1 (configuration not stated) 7.08 µM [inhibitor, full curve, poor fit]
CC(NC(=O)c1cccc(S(=O)(=O)N2CCCCCC2)c1)c1ccccc1 (configuration not stated) 63.1 µM [inhibitor, single point]
O=C(NCC1CC1)c1ccc(Nc2nc3ccc(Br)cc3[nH]2)cc1 31.6 µM [inhibitor, single point]
O=C(NC(Cc1ccccc1)C(=O)O)/C(=C/c1ccco1)NC(=O)c1cccc(Br)c1 (configuration not stated) 20 µM [inhibitor, full curve, poor fit]
O=C(Nc1nc2ccc(Cl)cc2s1)c1ccc(Br)o1 15.8 µM [inhibitor, full curve, poor fit]
O=[N+]([O-])c1ccccc1CNC1CCCCCC1 56.2 µM [inhibitor, partial curve, poor fit]
CC(=O)Nc1ccc(OCc2cccc([N+](=O)[O-])c2)cc1 89.1 µM [inhibitor, single point]
COc1ccc(OC)c(CCNC(=O)C2CCN(c3ncnc4c3nc3n4CCCCC3)CC2)c1 89.1 µM [inhibitor, single point]
Nc1ccc(N2CCOCC2)c(S(=O)(=O)Nc2ccccc2Cl)c1 70.8 µM [inhibitor, partial curve]
O=C(O)CCCC(=O)Nc1cccc(C(F)(F)F)c1 39.8 µM [inhibitor, single point]
COc1cc2nc(SCc3c(C)noc3C)n(CCC3=CCCCC3)c(=O)c2cc1OC 39.8 µM [inhibitor, single point]
O=C(NCc1ccco1)C1CCCN(S(=O)(=O)c2cccc3nonc23)C1 (configuration not stated) 12.6 µM [inhibitor, full curve, poor fit]
Cc1ccc(C(=O)N(C)CC(=O)Nc2cccc(C)c2C)o1 31.6 µM [inhibitor, single point]
C=C(CN(C)C)C(=O)c1cc(C)ccc1C 25.1 µM [inhibitor, single point]
O=c1oc(-c2cccs2)nc2c1cnn2-c1ccccc1 25.1 µM [inhibitor, partial curve, poor fit]
